Results published in US20050266575A1 (priority 2004, published 2005).
Some entries share one result that the patent states for a list of compounds. No end group written: not given here.

The chains behind the UniProt entries cited, without tags or fusion partners. Where a name states a change or a piece, a line headed by the entry shows the natural chain unless it says otherwise.
UniProt P41146: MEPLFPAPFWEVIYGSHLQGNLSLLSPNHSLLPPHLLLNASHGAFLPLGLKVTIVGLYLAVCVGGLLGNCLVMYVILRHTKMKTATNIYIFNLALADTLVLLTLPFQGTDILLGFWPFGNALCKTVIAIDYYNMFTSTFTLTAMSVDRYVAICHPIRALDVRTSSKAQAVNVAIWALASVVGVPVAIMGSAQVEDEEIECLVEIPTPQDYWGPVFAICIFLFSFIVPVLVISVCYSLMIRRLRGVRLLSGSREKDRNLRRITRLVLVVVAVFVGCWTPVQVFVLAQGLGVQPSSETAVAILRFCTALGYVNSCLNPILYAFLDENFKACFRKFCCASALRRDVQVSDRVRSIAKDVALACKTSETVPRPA

Biological target: T1, human nociceptin receptor (ORL-1) (Homo sapiens, UniProt P41146)
T1 construct: expressed in transfected cells
Test: Nociceptin receptor binding assay: binding of 125I-Tyr14-nociceptin to ORL-1 on HEK-293 cell membranes
Conditions: relative to nociceptin
Procedure: Binding of peptides to the ORL-1 Receptor. […] ORL-1 membranes were diluted in binding buffer such that 25 μL containing 1 microgram (μg) of membrane was added to each well of a standard 96-well microtiter in binding buffer. […] Plates were incubated for two hours at room temperature and the reactions were filtered over GF/C Filterplates (Perkin Elmer-NEN), prewetted in 0.03% polyethleneimine, in a Filtermate 196 apparatus (Packard). Plates were washed six times with binding buffer in the filtration apparatus, then dried under vacuum for 1-2 hours. Twenty five microliters (25 μL) Microscint 20 (Packard) per well was added to solubilize bound radioactivity. The plates were then sealed and counted on a Packard Top Count to determine radioactivity bound to the membranes. Curves were fitted and IC50 values determined using Graphpad Prizm software (v3.0).

Row | Sequence | increase in receptor binding affinity
1 | FGGFTGARKSARKLAAQ [Peptide N16A] | 2- to 3 fold
2 | FGGFTGARKSARKLGNQ [Peptide A15G] | 2- to 3 fold
